# Results deposited as PubChem BioAssay AID1224830 (NIAID, 2016).
# Screen: 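Regulators of TLR4 signalling towards TNF-alpha in macrophage-like cells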 (primary screen)
# System: human THP-1 monocytic leukaemia cells, TNF dual-luciferase reporter clone, PMA-differentiated to macrophage-like cells
# Reagents: siRNA pool against human genes, 50 nM
# Time to read-out: LPS for 4 h, given about 3 days after siRNA transfection
# Challenge: bacterial LPS (TLR4 ligand), 10 ng/ml
# Measurement: 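TNF firefly reporter luminescence divided by renilla, normalised to the plate median, then turned into a robust z-score for each replicate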
# Reading the numbers: TNF reporter robust z-score: higher = stronger TNF reporter response to LPS
# Rule for the call: 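a well is active when its z-score exceeds 2.8 or falls below -1.5; control wells carry no call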
# This is an unselected part of about 18,000 reagents tested. Over the whole deposit, about 2,900 (16%) got an active call. 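Calls are made per well; low scores hint the gene aids the LPS response, high scores that it dampens it.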 Repeated entries: four replicate wells of each siRNA pool.
gene,TNF reporter robust z-score,Outcome
LINC02897,-0.27,inactive
LINC02897,0.22,inactive
LINC02897,-0.4,inactive
LINC02897,-0.26,inactive
HEY1,0.29,inactive
HEY1,2.15,inactive
HEY1,1.94,inactive
HEY1,1.37,inactive
NCKAP5L,0.49,inactive
NCKAP5L,1.75,inactive
NCKAP5L,0.25,inactive
NCKAP5L,1.7,inactive
SGK2,-1.07,inactive
SGK2,0.01,inactive
SGK2,-0.59,inactive
SGK2,-0.22,inactive
C11orf16,-0.79,inactive
C11orf16,-0.42,inactive
C11orf16,-0.72,inactive
C11orf16,0.04,inactive
SALL3,-1.65,active
SALL3,-1.03,inactive
SALL3,-1.45,inactive
SALL3,-1.31,inactive
PAQR7,1.46,inactive
PAQR7,3.33,active
PAQR7,1.78,inactive
PAQR7,2.99,active
GJA5,-0.26,inactive
GJA5,1.09,inactive
GJA5,1.11,inactive
GJA5,0.83,inactive
LCTL,0.4,inactive
LCTL,0.93,inactive
LCTL,0.58,inactive
LCTL,0.16,inactive
GPR78,-0.62,inactive
GPR78,-0.12,inactive
GPR78,0.72,inactive
GPR78,1.12,inactive
DOK6,0.89,inactive
DOK6,-0.17,inactive
DOK6,0.68,inactive
DOK6,-0.28,inactive
GPC2,,inactive
GPC2,-1.14,inactive
GPC2,-0.66,inactive
GPC2,-1.18,inactive
GPC2,-1.01,inactive

Part of the list above, set out differently.
| gene | TNF reporter robust z-score | Outcome |
| --- | --- | --- |
| GPR78 | -0.12 | inactive |
| GPR78 | 0.72 | inactive |
| GPR78 | 1.12 | inactive |
